Measured values taken from US20190025321A1 (WHITEHEAD INSTITUTE FOR BIOMEDICAL RESEARCH, published 2019).

Key:
[1] = biological target: T1, endogenous GATOR2 complex (Seh1L, WDR59, WDR24, Sec13 and Mios) (human, UniProt Q9NXC5 1-875; Q96S15 1-790; Q6PJI9 1-974; P55735 2-322; Q96EE3 1-360, limits assumed); assay: co-immunoprecipitation, anti-HA IP from transfected HEK-293T cells starved of all amino acids 50 min, immunoblot for endogenous mios
T1 construct: Five-subunit complex; In most blots its presence is read from the mios band; also called detected by mios
Procedure: (§1) FIG. 8A depicts validation of the anti-serum used to detect endogenous CASTOR2. Lysates were prepared from HEK-293T lines stably expressing the indicated shRNAs and analyzed by immunoblotting for levels of indicated proteins. FIG. 8B depicts validation of the anti-serum used to detect endogenous CASTOR1. Lysates were prepared from HEK-293T stably lines expressing the indicated shRNAs and analyzed as in (8C). The arrow denotes the band corresponding to endogenous CASTOR1. […] HEK-293T cells were cotransfected with the indicated cDNAs in expression vectors, starved of all amino acids for 50 minutes, and anti-HA immunoprecipitates were analyzed as in FIG. 1D. […] HEK-293T cells were cotransfected with the indicated cDNAs in expression vectors, starved of all amino acids for 50 minutes, and anti-HA immunoprecipitates were analyzed as in FIG. 1D.

[2] = biological target: T2, recombinant CASTOR1 (Cellular Arginine Sensor for mTORC1; protein encoded by the GATS protein-like 3 gene) (human, UniProt Q8WTX7 1-329); assay: co-immunoprecipitation, anti-HA IP from co-transfected HEK-293T cells starved of all amino acids 50 min
T2 construct: Expressed from pRK5 vectors in HEK-293T cells; which tag was used depends on the experiment; also called GATSL3; CASTOR1-HA
T2 sequence (looked up): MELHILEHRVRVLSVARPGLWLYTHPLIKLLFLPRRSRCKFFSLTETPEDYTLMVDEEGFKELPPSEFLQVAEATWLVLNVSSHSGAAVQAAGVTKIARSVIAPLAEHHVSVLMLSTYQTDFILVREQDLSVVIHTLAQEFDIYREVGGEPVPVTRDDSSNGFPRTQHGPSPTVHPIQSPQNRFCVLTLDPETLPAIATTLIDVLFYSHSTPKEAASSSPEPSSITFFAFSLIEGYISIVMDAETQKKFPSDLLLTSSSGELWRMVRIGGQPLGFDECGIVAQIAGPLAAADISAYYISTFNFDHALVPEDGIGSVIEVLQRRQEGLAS
Procedure: as §1

[3] = biological target: T3, recombinant CASTOR2 (protein encoded by the GATSL2 gene) (human, UniProt A6NHX0 1-329); assay: as above
T3 construct: Expressed from pRK5 vectors in HEK-293T cells; the tag and its position depend on the experiment; also called CASTOR2-HA; CASTOR2-FLAG; not shown: printed both as CASTOR2-HA / CASTOR2-FLAG and as HA-CASTOR2 / myc-CASTOR2, so the end that
T3 sequence (looked up): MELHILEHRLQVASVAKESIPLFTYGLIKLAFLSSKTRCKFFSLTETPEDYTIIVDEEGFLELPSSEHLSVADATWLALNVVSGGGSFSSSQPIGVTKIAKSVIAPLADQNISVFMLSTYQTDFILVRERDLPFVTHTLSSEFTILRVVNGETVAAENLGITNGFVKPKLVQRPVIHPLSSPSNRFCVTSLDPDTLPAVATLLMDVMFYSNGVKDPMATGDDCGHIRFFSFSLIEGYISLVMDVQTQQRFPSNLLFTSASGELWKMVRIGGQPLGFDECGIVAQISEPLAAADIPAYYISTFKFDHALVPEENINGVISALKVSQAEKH
Procedure: as §1

Measured: binding result

B1: recombinant FAM164A (other, UniProt Q96GY0 1-325, looked up)
chain: MEGLEENGGVVQVGELLPCKICGRTFFPVALKKHGPICQKTATKKRKTFDSSRQRAEGTDIPTVKPLKPRPEPPKKPSNWRRKHEEFIATIRAAKGLDQALKEGGKLPPPPPPSYDPDYIQCPYCQRRFNENAADRHINFCKEQAARISNKGKFSTDTKGKPTSRTQVYKPPALKKSNSPGTASSGSSRLPQPSGAGKTVVGVPSGKVSSSSSSLGNKLQTLSPSHKGIAAPHAGANVKPRNSTPPSLARNPAPGVLTNKRKTYTESYIARPDGDCASSLNGGNIKGIEGHSPGNLPKFCHECGTKYPVEWAKFCCECGIRRMIL
notes: Collected by anti-HA immunoprecipitation, so probably HA-tagged; the construct is not described
no binding: all assays above
